Laboratory results published in the supplement of paper PMC7877785.
± gives the uncertainty stated by the source. Many of these values have a large error.

Assay: self-splicing fitness, log relative to wild type (ln ratio); higher = more splicing; Tetrahymena group I intron in knt gene, E. coli kanamycin selection, DiMSum; sequences stand for … in CUCUCU…GGAGGGAAAAGUUAUCAGGCAUGCACCUGGUAGCUAGUCUUUAAACCAAUAGAUUGCAUCGGUUUAAAAGGCAAGACCGUCAAAUUGCGGGAAAGGGGUCAACAGCCGUUCAGUACCAAGUCUCAGGGGAAACUUUGAGAUGGCCUUGCAAAGGGUAUGGUAAUAAGCUGACGGACAUGGUCCUAACCACGCAGCCAAGUCCUAAGUCAACAGAUCUUCUGUUGAUAUGGAUGCAGUUCACAGACUAAAUGUCGGUCGGGGAAGAUGUAUUCUUCUCAUAAGAUAUAGUCGGACCUCUCCUUAAUGGGAGCUAGCGGAUGAAGUGAUGCAACACUGGAGCCGCUGGGAACUAAUUUGUAUGCGAAAGUAUAUUGAUUAGUUUUGGAGUACUCGUGGUCG
Summary of the method: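 Library with all eight P1ex-region intron nucleotides randomised, intron inside the knt kanamycin-resistance gene on pET-22b(+), in E. coli BL21(DE3). Cells grew overnight at 37°C or 30°C on LB agar with or without 25 μg/mL kanamycin (plus 100 μg/mL carbenicillin, 50 μM IPTG, 0.2% rhamnose), in six replicate transformations. Pooled colonies were amplicon-sequenced on Illumina HiSeq 2500. DiMSum fitness is the error-weighted combination of wild-type-normalised replicate fold changes, kanamycin versus none.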

Row | Sequence | self-splicing fitness (ln) (30 °C) | self-splicing fitness (ln) (37 °C)
1 | GGAGAGCAAUAUUACGGAAU | -3.07 ± 0.53 | -2.23 ± 0.55
2 | GGACAGCAAUAUUACGACAC | -0.596 ± 0.1 | 0.167 ± 0.13
3 | CUAUAGCAAUAUUACGGGAC |  | -2.18 ± 1.1
4 | UGAGAGCAAUAUUACGAGGU | -4.2 ± 0.59 | -2.72 ± 0.54
5 | UUUCAGCAAUAUUACGGCCC | -2.09 ± 1.4 | -1.33 ± 0.54
6 | CGUAAGCAAUAUUACGGGAC | -2.9 ± 0.29 | -2.47 ± 0.41
7 | GUAGAGCAAUAUUACGACUU | -0.172 ± 0.081 | 0.104 ± 0.1
8 | AGAAAGCAAUAUUACGGAGG | -3.33 ± 0.16 | -2.72 ± 0.3
9 | CGUGAGCAAUAUUACGUCGG | -0.475 ± 0.11 | -0.606 ± 0.12
10 | GUUCAGCAAUAUUACGGAGA | -1.5 ± 0.64 | 
11 | AAGCAGCAAUAUUACGCCAG | -2.67 ± 0.36 | -1.43 ± 0.41
12 | CGUUAGCAAUAUUACGAGUC | -3.26 ± 0.51 | -3.06 ± 0.61
13 | UUCUAGCAAUAUUACGGGAC | -3.17 ± 0.59 | -1.06 ± 0.71
14 | GUUUAGCAAUAUUACGGAAC |  | -1.59 ± 0.56
15 | CUGGAGCAAUAUUACGAUCC | -3.34 ± 1.1 | -1.72 ± 0.52
16 | UUGGAGCAAUAUUACGAUUG | -4.45 ± 0.72 | 
17 | UUACAGCAAUAUUACGAAGC | -2.95 ± 0.54 | 
18 | AGCGAGCAAUAUUACGAUAA | -3.59 ± 0.52 | 
19 | CGGGAGCAAUAUUACGAGGG |  | -2.23 ± 0.5
20 | AAGGAGCAAUAUUACGGACA | -4.04 ± 1 | -3.34 ± 0.6
21 | UCCGAGCAAUAUUACGGCCG |  | -3.49 ± 1
22 | UAGUAGCAAUAUUACGCCAC |  | -1.56 ± 0.4
23 | GUGAAGCAAUAUUACGAUGC | -1.65 ± 0.57 | -0.66 ± 0.5

Row | Sequence | self-splicing fitness (ln) (30 °C) | self-splicing fitness (ln) (37 °C)
24 | CUAUAGCAAUAUUACGCUCA | -3.46 ± 1.1 | -3.1 ± 0.61
25 | CUCUAGCAAUAUUACGGCCU | -1.63 ± 0.5 | 
26 | UUAGAGCAAUAUUACGGACC | -3.19 ± 0.82 | 
27 | CAGAAGCAAUAUUACGGAAC | -3.6 ± 1 | -1.55 ± 0.68
28 | CUUGAGCAAUAUUACGGACC | -2.35 ± 0.51 | -2.13 ± 0.81
29 | UGAGAGCAAUAUUACGUACC |  | -3.08 ± 1.1
30 | AAUUAGCAAUAUUACGAGAC | -3.78 ± 0.53 | 
31 | UAUGAGCAAUAUUACGUGGU | -4.91 ± 1 | 
32 | CGCGAGCAAUAUUACGAGAA | -2.7 ± 0.76 | 
33 | UCUUAGCAAUAUUACGAGAU | -4.12 ± 1 | -2.73 ± 0.54
34 | GGGCAGCAAUAUUACGCUGC | -3.38 ± 0.77 | -2.23 ± 0.56
35 | AAAUAGCAAUAUUACGAAGC |  | -3.75 ± 0.59
36 | CGUGAGCAAUAUUACGAAAC | -2.83 ± 0.5 | 
37 | GGUGAGCAAUAUUACGCUCA | -1.23 ± 0.91 | -2.16 ± 1.1
38 | UAGCAGCAAUAUUACGUACC |  | -1.77 ± 0.7
39 | CUUAAGCAAUAUUACGCGCC | -4.18 ± 0.52 | -2.52 ± 0.62
40 | AACCAGCAAUAUUACGGGUA | -0.823 ± 0.045 | -0.376 ± 0.055
41 | UCAGAGCAAUAUUACGCUGG | -3.76 ± 1 | -2.88 ± 0.75
42 | UCUUAGCAAUAUUACGCAGC | -3.01 ± 0.64 | -2.48 ± 1.1
43 | CUCUAGCAAUAUUACGGUAG | -4.49 ± 0.33 | -1.79 ± 0.23
44 | ACAUAGCAAUAUUACGCGUU | -3.55 ± 0.24 | -2.39 ± 0.15
45 | AGCCAGCAAUAUUACGUUAA | -2.44 ± 0.17 | -2.59 ± 0.2
46 | GGCAAGCAAUAUUACGCCCC | -4.13 ± 0.73 | 

Full records from above:
GGCAAGCAAUAUUACGCCCC is listed with self-splicing fitness (ln) (30 °C): -4.13 ± 0.73
CGUUAGCAAUAUUACGAGUC is listed with self-splicing fitness (ln) (30 °C): -3.26 ± 0.51; self-splicing fitness (ln) (37 °C): -3.06 ± 0.61
GUUUAGCAAUAUUACGGAAC is listed with self-splicing fitness (ln) (37 °C): -1.59 ± 0.56
UUACAGCAAUAUUACGAAGC is listed with self-splicing fitness (ln) (30 °C): -2.95 ± 0.54

Further entries follow:

Row | Sequence | self-splicing fitness (ln) (30 °C) | self-splicing fitness (ln) (37 °C)
47 | CAAGAGCAAUAUUACGACCA | -3.9 ± 0.61 | -1.99 ± 0.66
48 | AAUAAGCAAUAUUACGUCCC | -0.502 ± 0.17 | 0.393 ± 0.26
49 | AGAGAGCAAUAUUACGGGGU | -4.63 ± 0.59 | 
50 | GGCGAGCAAUAUUACGAAGC |  | -1.38 ± 0.69
51 | CUGAAGCAAUAUUACGACUC |  | -2.7 ± 0.54
52 | GAAGAGCAAUAUUACGCCGA | -2.92 ± 0.62 | -4.93 ± 1
53 | UUUUAGCAAUAUUACGCCUC | -2.35 ± 0.8 | 
54 | GAUGAGCAAUAUUACGUAUA | -1.84 ± 0.58 | 
55 | CCCCAGCAAUAUUACGGCCC | -2.25 ± 0.59 | 
56 | GUAAAGCAAUAUUACGAGCG | -0.0732 ± 0.09 | 0.212 ± 0.12
57 | GGGCAGCAAUAUUACGCUCC |  | 0.241 ± 0.7
58 | CAUUAGCAAUAUUACGGCCC | -2.67 ± 0.57 | -2.21 ± 0.8
59 | CUAAAGCAAUAUUACGGUAC | -5.12 ± 0.51 | 
60 | CAUGAGCAAUAUUACGUUCG | -1.33 ± 0.13 | -0.161 ± 0.14
61 | UGACAGCAAUAUUACGACCU | -1.09 ± 0.11 | 0.0765 ± 0.14
62 | CAGGAGCAAUAUUACGCCGG | -3.78 ± 0.52 | 
63 | AGAUAGCAAUAUUACGACCC |  | 0.0449 ± 0.68
64 | CCGGAGCAAUAUUACGCUAU | -4.42 ± 0.59 | 
65 | CAUGAGCAAUAUUACGACCC | -2.21 ± 1.1 | 0.504 ± 1.2
66 | AGCAAGCAAUAUUACGAAGC |  | -3.24 ± 0.61
67 | AUGGAGCAAUAUUACGAGGA | -4.4 ± 1 | -1.98 ± 0.81
68 | CCUCAGCAAUAUUACGCUGU | -2.84 ± 0.17 | -2.05 ± 0.25
69 | CGUCAGCAAUAUUACGUUGA | -3.04 ± 0.26 | -2.26 ± 0.19

Row | Sequence | self-splicing fitness (ln) (30 °C) | self-splicing fitness (ln) (37 °C)
70 | UCUCAGCAAUAUUACGAGGU | -3.27 ± 1.1 | 
71 | AGUGAGCAAUAUUACGAGGU |  | -2.84 ± 0.53
72 | UGGGAGCAAUAUUACGGAGA | -3.75 ± 0.52 | -3.15 ± 0.73
73 | AUCUAGCAAUAUUACGCCCU | -0.479 ± 0.19 | 0.46 ± 0.19
74 | CGGGAGCAAUAUUACGGUCC | -5.72 ± 0.71 | 
75 | GCUUAGCAAUAUUACGAAAC | -1.22 ± 0.16 | -0.448 ± 0.24
76 | CUUUAGCAAUAUUACGAAAA | -3.44 ± 0.61 | 
77 | CCUCAGCAAUAUUACGCCAA |  | -2.69 ± 0.53
78 | GUGGAGCAAUAUUACGUCGC | -3.19 ± 0.57 | 
79 | GGGGAGCAAUAUUACGUUUG | -2.97 ± 0.53 | 
80 | GAGGAGCAAUAUUACGCUGG |  | -4.06 ± 1
81 | AGUUAGCAAUAUUACGCUAG | -3.76 ± 0.6 | -2.84 ± 0.6
82 | CUAUAGCAAUAUUACGCCGC | -3.96 ± 1 | 
83 | UGCCAGCAAUAUUACGAGAA | -3.31 ± 0.61 | 
84 | UUUGAGCAAUAUUACGGGAG | -3.55 ± 0.28 | -1.99 ± 0.19
85 | GCGUAGCAAUAUUACGCCCA |  | -0.74 ± 0.81
86 | UCUUAGCAAUAUUACGGACC | -3.57 ± 0.55 | 
87 | UUUGAGCAAUAUUACGACCC | -2.66 ± 1.1 | -1.99 ± 0.66
88 | ACCGAGCAAUAUUACGCAUU | -3.91 ± 0.17 | -1.78 ± 0.12
89 | CUGGAGCAAUAUUACGCCAG | -4.65 ± 0.59 | 
90 | GCGGAGCAAUAUUACGCCCA | -3.03 ± 0.54 | -0.681 ± 1
91 | AGGGAGCAAUAUUACGAAGA | -0.226 ± 0.82 | -2.86 ± 1.1
92 | UGAAAGCAAUAUUACGCGGU | -4.28 ± 0.73 | 

Row | Sequence | self-splicing fitness (ln) (30 °C) | self-splicing fitness (ln) (37 °C)
93 | AGGCAGCAAUAUUACGAACC | -0.0701 ± 0.18 | -1.03 ± 0.2
94 | UAGUAGCAAUAUUACGCCAA | -3.28 ± 0.29 | -2.02 ± 0.24
95 | UCACAGCAAUAUUACGCGCC | -3.06 ± 0.61 | -2.9 ± 0.61
96 | CGAUAGCAAUAUUACGAGCG | -0.984 ± 0.12 | -0.453 ± 0.13
97 | GCUGAGCAAUAUUACGUAGC |  | -1.13 ± 1.2
98 | AACGAGCAAUAUUACGACCC |  | 0.0469 ± 0.68
99 | AGGAAGCAAUAUUACGCCCU |  | -3.03 ± 0.53
100 | UGGGAGCAAUAUUACGGAAC |  | -0.234 ± 1.4
101 | UUCUAGCAAUAUUACGAGCU | -3.18 ± 0.62 | -4.11 ± 0.72
102 | UAAUAGCAAUAUUACGCUAU | -2.93 ± 0.19 | -1.85 ± 0.21
103 | AGGGAGCAAUAUUACGCCGG | -3.1 ± 0.63 | -1.98 ± 1.1
104 | UCCAAGCAAUAUUACGCAUG | -4.8 ± 0.31 | -2.27 ± 0.19
105 | GCCAAGCAAUAUUACGGAGG | -3.49 ± 0.19 | -1.08 ± 0.16
106 | UAACAGCAAUAUUACGCUUC | -2.39 ± 0.51 | -1.98 ± 0.64
107 | UCUUAGCAAUAUUACGCCAA | -2.47 ± 1.1 | -3.33 ± 1
108 | AUGGAGCAAUAUUACGAGCC |  | -1.39 ± 1.2
109 | AGUCAGCAAUAUUACGCCGC | -2.6 ± 0.64 | -1.47 ± 0.87
110 | CUUCAGCAAUAUUACGUACA | -2.87 ± 0.63 | 
111 | UUGGAGCAAUAUUACGCGAA | -3.7 ± 1.1 | 
112 | AGCUAGCAAUAUUACGUUGG | -3.61 ± 0.19 | -2.03 ± 0.18
